From the supplement of paper PMC3334620
The full ranking holds about 33,000 sequences; the median of “E-score (-0.5 to 0.5)” is about -0.0059, and the highest 2% start at about 0.26. The list shows a part of the results.

target: T1, Cin5 (UniProt P40917); test: PBM E-score (8-mer binding enrichment) (E-score (-0.5 to 0.5)); higher = stronger / more preferred TF binding; details: protein concentration: 100 nM; construct: GST-full length
T1 sequence: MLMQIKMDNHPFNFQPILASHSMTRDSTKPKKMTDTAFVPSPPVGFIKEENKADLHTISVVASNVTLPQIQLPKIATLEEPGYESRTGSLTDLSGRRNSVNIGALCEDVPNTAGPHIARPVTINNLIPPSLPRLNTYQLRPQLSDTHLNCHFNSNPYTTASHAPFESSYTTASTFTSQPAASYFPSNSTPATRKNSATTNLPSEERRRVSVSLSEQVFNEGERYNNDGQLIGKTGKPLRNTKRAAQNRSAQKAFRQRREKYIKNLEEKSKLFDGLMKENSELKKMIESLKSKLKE
Description: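 Universal 'all 10-mer' protein binding microarrays (Agilent AMADID 015681) probed with GST-tagged S. cerevisiae TFs (full-length or DBD) made by in vitro transcription/translation (PURExpress), about 100-200 nM. Bound TF was detected with fluorescent anti-GST. Each ungapped 8-mer (which stands for itself and its reverse complement) is scored by the PBM enrichment score (E-score), a modified Wilcoxon-Mann-Whitney statistic from -0.5 to +0.5, computed with the Universal PBM Analysis Suite. Scale: above 0.35 generally sequence-specific binding.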

Row | Sequence | PBM E-score
1 | CTGATGAC | 0.129
2 | GCGGATGA | 0.167
3 | ATACAATA | 0.278
4 | ACCCTCGC | -0.131
5 | CATGAGAG | 0.128
6 | AGGCGTTG | -0.0279
7 | ACACCTCC | -0.161
8 | GTGGATCA | -0.0561
9 | CACAGGGC | -0.243
10 | CACGGCAA | 0.0669
11 | AACATCAG | 0.0836
12 | TACGGAAA | 0.145
13 | CGTGCCCA | -0.107
14 | AAATGGTC | 0.0467
15 | TACCGACA | 0.141
16 | ATCTCAGC | 0.0315
17 | CGCATTCC | -0.179
18 | AAAGCCAT | 0.0541
19 | GTGAGTGA | -0.106
20 | ACCCTAAC | -0.0346
21 | GCCAAAGC | -0.162
22 | AATGATAG | 0.272
23 | ATCGTTTG | -0.0599
24 | GACTACAC | 0.0277
25 | ATCGCAGA | -0.0675

Row | Sequence | PBM E-score
26 | ACTAAGCG | 0.149
27 | CACGGATC | -0.0237
28 | ACCTAAAT | 0.0373
29 | CTAACTTA | -0.00293
30 | GAACCAGC | -0.0522
31 | ATAGTGTG | 0.146
32 | GCACCTGC | -0.137
33 | GGTCAGGA | -0.0114
34 | GGATAGCA | 0.0689
35 | CTTCCTAC | -0.331
36 | CTGTTAGA | -0.0871
37 | GGGTCTAC | -0.154
38 | CAGGCAAG | -0.112
39 | CGCCGCCC | -0.154
40 | CTGCAGCA | 0.061
41 | CTTCAGTA | 0.0297
42 | TAAAACCA | -0.0738
43 | GCATGCAA | 0.142
44 | ACGCGCTA | -0.00527
45 | ATCTGCGC | -0.105
46 | CCAGGTCG | -0.0717
47 | AAGGTAGG | 0.0125
48 | CGATCATA | 0.0918
49 | GAGGAAAA | -0.00181
50 | CAGGTCAA | -0.0444

Row | Sequence | PBM E-score
51 | GGACGCCC | -0.28
52 | TGGTGAAA | -0.0469
53 | AACGGTCT | -0.119
54 | AAACACTG | 0.108
55 | ACGAGTGG | -0.21
56 | AGTGATTG | 0.115
57 | CCGGTGGA | -0.101
58 | ACGTCGTA | -0.113
59 | ATTCTAGA | 0.0325
60 | GCAAGACA | -0.0367
61 | GTTAATAA | 0.186
62 | CTGTCGAC | -0.14
63 | CCACGGCG | -0.0814
64 | TGGCCCAA | -0.158
65 | CCACTCTC | -0.133
66 | AGGCTCGA | -0.0641
67 | CCGACCAA | -0.00883
68 | GGGCAGCA | -0.227
69 | AGCCCATC | -0.13
70 | ACGACACT | -0.0341
71 | ACAGTCGC | -0.226
72 | GAGTGGAA | -0.0541
73 | AGGGCCAA | -0.313
74 | AGCCAATC | -0.0481
75 | GCTATGAC | -0.0133

Row | Sequence | PBM E-score
76 | ACGTCAGC | 0.394
77 | CCGTCACG | -0.0991
78 | TCCGAGCA | 0.00289
79 | ACCTAGCA | 0.0473
80 | CCAAAGGC | -0.269
81 | AAGATATG | 0.268
82 | GAAGGCAA | 0.0399
83 | CGTAGTAA | 0.156
84 | AATCCAGG | 0.172
85 | AATGCGAT | 0.0417
86 | ACAGACGA | 0.0695
87 | CACGTGAG | -0.0998
88 | GCCCGATA | -0.195
89 | CCGCAAAG | 0.0544
90 | ACGGTTTC | -0.124
91 | GCACATAC | -0.202
92 | ACGTCTCA | 0.124
93 | CTGGTCGA | -0.378
94 | AATTCGAA | 0.0371
95 | GATAGTTA | 0.226
96 | CTAGCTCA | -0.101
97 | CATGGATC | -0.00694
98 | AGTATGCC | -0.0797
99 | AGGAGCAA | -0.104
100 | AGGTAGGG | 0.0397

Row | Sequence | PBM E-score
101 | AAACATCA | 0.129
102 | AGACGTTA | -0.0554
103 | GACCTTGA | -0.0555
104 | AGAATTCC | 0.0573
105 | GGTGCCAA | -0.118
106 | ACACTTGG | -0.0972
107 | ATCGGCTC | 0.0239
108 | ACTTCGAG | 0.0671
109 | AAGGATGA | 0.0547
110 | CATGCACG | -0.0722
111 | CACTATTC | 0.173
112 | AAGAGATG | 0.0505
113 | CTGGACCA | -0.148
114 | AAGTTCGG | -0.0355
115 | TGTCAGAA | -0.0358
116 | GCTACAAA | 0.107
117 | ATGCAACC | 0.0776
118 | ACGTTGAA | 0.0972
119 | CGAGAATC | 0.0488
120 | ATCGACCA | -0.12
121 | ACACAATC | -0.0345
122 | GGATTAAC | 0.164
123 | CCCGCCTA | 0.131
124 | CGTCTAGC | -0.173
125 | AATAAGAC | 0.0572

Taken from the results shown for reference:
Row | Sequence | PBM E-score
69 | AGCCCATC | -0.13
70 | ACGACACT | -0.0341
71 | ACAGTCGC | -0.226
72 | GAGTGGAA | -0.0541
73 | AGGGCCAA | -0.313
74 | AGCCAATC | -0.0481

Next entries follow.

Row | Sequence | PBM E-score
126 | AAGCCCGA | -0.104
127 | ATGATATC | 0.167
128 | CGCCGCTC | -0.0167
129 | ATGAGCCA | 0.0939
130 | CCCCACGC | -0.238
131 | GACAAATA | 0.149
132 | AGGACTCG | -0.22
133 | CAGGGATC | -0.13
134 | ACCCGCAC | -0.0302
135 | TGATTGCA | 0.184
136 | AGGATTGC | -0.179
137 | AAATCCCG | 0.124
138 | CAGACGGG | -0.199
139 | AGGCTACC | -0.245
140 | ATGTTTTG | 0.151
141 | CAGTACGG | -0.0198
142 | GCTTGCCC | -0.312
143 | GCGTCAGC | -0.102
144 | CGCTATAC | 0.145
145 | GTACCGTA | 0.0114
146 | GATTGGGC | 0.114
147 | GGAAAACA | 0.0863
148 | CTCTATCA | -0.0636
149 | ACTGACCT | 0.0284
150 | CAAACGTA | 0.12

Row | Sequence | PBM E-score
151 | CGATAAAC | -0.143
152 | GTCTCAGA | -0.168
153 | ATAACGAC | 0.238
154 | ACCAGACC | -0.0459
155 | CCAACGAC | -0.158
156 | GATTAATA | 0.348
157 | TAAAACAA | -0.0112
158 | GGGGAATA | 0.0277
159 | ACCTCCGG | -0.0229
160 | AGAATCCA | 0.0844
161 | AAGATATT | 0.247
162 | GTATGTTA | 0.0473
163 | CGACTCGC | -0.0833
164 | GATTAGTA | 0.254
165 | GAGAATTA | 0.2
166 | ACGGTGTC | -0.265
167 | GACCGCTC | -0.167
168 | CTCTCCAG | -0.333
169 | ACATATGT | 0.103
170 | AGCTCCCC | -0.218
171 | CGATCTGA | 0.0488
172 | ACAGCGGC | -0.142
173 | CCCTACAG | -0.188
174 | GATTCAGA | 0.0843
175 | ATCTTCAC | 0.0209

Row | Sequence | PBM E-score
176 | ACGCTTCA | -0.178
177 | CCGGCTTA | 0.166
178 | AAACCCGT | -0.2
179 | AAACCGCA | -0.142
180 | GACCCTGA | -0.186
181 | TCGGGACA | -0.0817
182 | AGTAGGTG | -0.00231
183 | CATCTATC | 0.0252
184 | CACGTTCA | -0.14
185 | CCCGGTTC | -0.24
186 | AGGACAAA | 0.152
187 | GCGCGATA | 0.177
188 | TGCAGAAA | 0.0504
189 | ATTGAGTC | 0.103
190 | GTCTACGA | -0.215
191 | AGTTGTCC | 0.0343
192 | GTCTAACA | -0.192
193 | CGGAACGA | 0.287
194 | AAATTGCA | 0.15
195 | CGTATGTC | -0.123
196 | ACTATCTC | 0.121
197 | AAGTTAAC | 0.194
198 | CCAATCCC | 0.0783
199 | CAACTCTC | -0.0548
200 | GTTGACGA | -0.0909

Row | Sequence | PBM E-score
201 | CACCATAC | 0.00539
202 | ATAAATTA | 0.349
203 | ACCAGTCA | 0.0208
204 | CAGTGCAA | 0.0676
205 | GTTTCTAA | -0.0728
206 | CAAATTTG | 0.0968
207 | TACACCCA | 0.187
208 | GGCGTTTA | -0.0349
209 | GTTTACTA | 0.241
210 | ATGTTGAC | 0.146
211 | GAGTCTAC | -0.194
212 | CAGGGGGA | -0.337
213 | GCTTCCCA | -0.174
214 | CTATCAAC | 0.102
215 | TTAATGAA | 0.201
216 | CTATGCTA | -0.0144
217 | ATATCGAT | 0.265
218 | AAAGCTTC | -0.18
219 | GGACATCC | -0.0593

An excerpt of these results, in markdown:

| Row | Sequence | PBM E-score |
| --- | --- | --- |
| 202 | ATAAATTA | 0.349 |
| 203 | ACCAGTCA | 0.0208 |
| 204 | CAGTGCAA | 0.0676 |
| 205 | GTTTCTAA | -0.0728 |
| 206 | CAAATTTG | 0.0968 |
| 207 | TACACCCA | 0.187 |
